These are yes or no findings as the source states them, for the method shown. In cells and extracts the contact can be indirect. Some results given as binding are weak or reduced against the parent protein; the word gives no strength. Sequences can lack the tags named with a protein.

This assay concerns the target T1, ELONGATED HYPOCOTYL 5 (HY5), HA-tagged (Arabidopsis thaliana) (UniProt O24646).
T1 sequence: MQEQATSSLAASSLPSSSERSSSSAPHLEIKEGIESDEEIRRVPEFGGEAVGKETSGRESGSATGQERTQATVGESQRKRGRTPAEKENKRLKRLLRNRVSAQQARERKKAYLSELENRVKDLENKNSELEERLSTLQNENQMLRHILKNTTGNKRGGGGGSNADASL
As to the kind of experiment: co-IP; His-HY5-HA and His-bZIP-FLAG co-synthesized in wheat germ extract; crude extract pre-washed with Dynabeads protein G, then immunoprecipitated with anti-HA antibody on Dynabeads Protein G, 4 °C, 2 h; binding buffer 10 mM Tris-HCl pH7.5, 50 mM KCl, 5 mM MgCl2, 1 mM DTT, 0.05% Triton-X100, 2.5% glycerol; Western blot with anti-HA and anti-FLAG. On the technique in general: In western blotting, separated proteins are transferred to a membrane and probed.

B1: G-box binding factor 2 (GBF2), FLAG-tagged (protein, UniProt P42775 1-360)
chain: MGSNEEGNPTNNSDKPSQAAAPEQSNVHVYHHDWAAMQAYYGPRVGIPQYYNSNLAPGHAPPPYMWASPSPMMAPYGAPYPPFCPPGGVYAHPGVQMGSQPQGPVSQSASGVTTPLTIDAPANSAGNSDHGFMKKLKEFDGLAMSISNNKVGSAEHSSSEHRSSQSSENDGSSNGSDGNTTGGEQSRRKRRQQRSPSTGERPSSQNSLPLRGENEKPDVTMGTPVMPTAMSFQNSAGMNGVPQPWNEKEVKREKRKQSNRESARRSRLRKQAETEQLSVKVDALVAENMSLRSKLGQLNNESEKLRLENEAILDQLKAQATGKTENLISRVDKNNSVSGSKTVQHQLLNASPITDPVAAS
As for B1, the binding result is listed as “binds”.

B2: HY5 HOMOLOG (HYH), FLAG-tagged (protein, UniProt Q8W191 1-149)
chain: MSLQRPNGNSSSSSSHKKHKTEESDEELLMVPDMEAAGSTCVLSSSADDGVNNPELDQTQNGVSTAKRRRGRNPVDKEYRSLKRLLRNRVSAQQARERKKVYVSDLESRANELQNNNDQLEEKISTLTNENTMLRKMLINTRPKTDDNH
Regarding B2, the binding result is on record as “binds”.

B3: G-box binding factor 3 (GBF3), FLAG-tagged (protein, UniProt P42776 1-382)
chain: MGNSSEEPKPPTKSDKPSSPPVDQTNVHVYPDWAAMQAYYGPRVAMPPYYNSAMAASGHPPPPYMWNPQHMMSPYGAPYAAVYPHGGGVYAHPGIPMGSLPQGQKDPPLTTPGTLLSIDTPTKSTGNTDNGLMKKLKEFDGLAMSLGNGNPENGADEHKRSRNSSETDGSTDGSDGNTTGADEPKLKRSREGTPTKDGKQLVQASSFHSVSPSSGDTGVKLIQGSGAILSPGVSANSNPFMSQSLAMVPPETWLQNERELKRERRKQSNRESARRSRLRKQAETEELARKVEALTAENMALRSELNQLNEKSDKLRGANATLLDKLKCSEPEKRVPANMLSRVKNSGAGDKNKNQGDNDSNSTSKLHQLLDTKPRAKAVAAG
As to B3, the binding entry is on record as “binds”.

These data come from publication PMC7139404.
